Experimental data as given in patent US20160157490A1, “COMPOSITIONS COMPRISING A GERMINANT AND AN ANTIMICROBIAL AGENT” (priority 2010, published 2016).
Some of these results come from one statement about several compounds together.

Tested on: C. difficile spores
Test: Germination efficacy testing of germinant solution with antimicrobial and preservative (neutraliser, heat shock or ice)
Format: cell-based
Details: 1 hour incubation
Description: The solution was heated and mixed thoroughly to dissolve all of the components before filtration through a pore size of 0.2 μm for sterilization. (This solution is double the working strength as it is diluted 1:2 during the experiment).
The pH was adjusted to 7 and was autoclaved to sterilize.
For the control, 100 μL of sterilized distilled water was mixed with 100 μL of C. difficile spore suspension. Spore suspensions were also incubated with solutions containing benzalkonium chloride and Tris buffer (without amino acids or taurocholate), benzyl alcohol with Tris buffer (without amino acids and taurocholate) and a solution containing the five amino acids and taurocholate (with no antimicrobials). […] (miniMACS Anaerobic Workstation (Don Whitley Scientific Ltd)).

[1] = without heat shocking (chilled on ice)

| Compound | log reduction in CFU/mL (followed by heat shocking) | log reduction in CFU/mL [1] |
| --- | --- | --- |
| OCc1ccccc1 [benzyl alcohol] | less than 0.3 log | less than 0.3 log |
| benzalkonium chloride | less than 0.3 log | less than 0.3 log |
